In the supplement of paper PMC8256030:
Several values for one entry are separate records, joined by “and”; a condition that tells them apart may be missing. Equal entries are not always repeated. The list shows a part of the results. Repeats in this data set agree poorly, so a single value says little.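 HEK293T cells were given each compound shortly before transfection with a reporter in which red mCherry is followed by the SARS-CoV-2 frameshift element and then GFP in the −1 frame, so GFP appears only after frameshifting.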

test system: SARS-CoV-2 -1 PRF reporter mCherry-FSE-GFP(-1); assay: percent effect, decrease of GFP/mCherry ratio (-1 PRF reporter) relative to controls; higher = stronger frameshift inhibition; conditions: 10 µM; 24 h; HEK293T

Compound	percent effect
CC1(C)S[C@@H]2[C@H](NC(=O)[C@H](N)c3ccc(O)cc3)C(=O)N2[C@H]1C(=O)O [Amoxicillin]	-4.4%
CN(C)CCN(Cc1ccc(Cl)cc1)c1ccccn1	-0.793%
CC(=O)OCC(=O)[C@@]1(O)CC[C@H]2[C@@H]3CCC4=CC(=O)CC[C@]4(C)[C@@]3(F)[C@@H](O)C[C@@]21C	-1.46%
CN(C)CC(c1ccc(O)cc1)C1(O)CCCCC1 (stereo not given)	1.89%
C=C1/C(=C\C=C2/CCC[C@]3(C)[C@@H]([C@H](C)CCCC(C)(C)O)CC[C@@H]23)C[C@@H](O)C[C@@H]1O [calcitriol]	-3.6% and -0.793%
